# This list was built around the results that the source calls inconclusive (neither active nor inactive); the mix of calls is not that of the screen. Where the call is inconclusive, the potency comes from a doubtful curve fit. Activity calls are given as the source filed them. Calls follow the shape of the dose curve; as a rule, active = well fitted curve in the direction sought with a large enough effect; inconclusive = small, poorly fitted or top-dose-only effect, or another doubt; inactive = no such curve, though single readings can be large; an effect the other way counts as inactive or inconclusive.
# Assays:
# [1] = Quantitative High-Throughput drug screen in 47 multiple myeloma cell lines against the NCATS MIPE library collection: KMS20_JCRB cell viability assay (AID 1918973); settings: CellTiter-Glo ATP, 48 h; viability (% of DMSO): at 45.8 µM (top of the series); also: nearly all actives have a fitted effect of over 45% in size
# Method in brief: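 CellTiter-Glo luminescence (ATP) after 48 h compound exposure, 37C/5% CO2; 500 cells/well; MIPE 4.0 approved/investigational drugs pinned in; DMSO = 100%, media only = 0% viability.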
# [2] = Quantitative High-Throughput drug screen in 47 multiple myeloma cell lines against the NCATS MIPE library collection: KMS26_JCRB cell viability assay (AID 1918975); settings: KMS26 myeloma cells viability, CellTiter-Glo ATP, 48 h; viability (% of DMSO): at 45.8 µM (top of the series); also: nearly all actives have a fitted effect of over 45% in size
# Method in brief: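 We plated 500 myeloma cells per well, pinned in MIPE 4.0 compounds, and incubated for 48 hours at 37C. ATP was then quantified with CellTiter-Glo, with DMSO and media-only wells defining 100% and 0%.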
# [3] = Quantitative High-Throughput drug screen in 47 multiple myeloma cell lines against the NCATS MIPE library collection: MOLP8_DSMZ cell viability assay (AID 1918977); settings: MOLP8 myeloma viability, CellTiter-Glo ATP luminescence, 48 h; viability (% of control): at 45.8 µM (top of the series); also: nearly all actives have a fitted effect of over 45% in size
# Method in brief: (§1)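 Inhibition of viability over 48 h was scored by ATP content (CellTiter-Glo) in 500-cell wells. Zero and full viability were defined by media-only and DMSO-only wells.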
# [4] = Quantitative High-Throughput drug screen in 47 multiple myeloma cell lines against the NCATS MIPE library collection: NCIH929_DSMZ cell viability assay (AID 1918978); also: nearly all actives have a fitted effect of over 35% in size
# Method in brief: as §1
# [5] = Quantitative High-Throughput drug screen in 47 multiple myeloma cell lines against the NCATS MIPE library collection: MM1S_ATCC cell viability assay (AID 1918980); also: nearly all actives have a fitted effect of over 45% in size
# Method in brief: as §1
# [6] = Quantitative High-Throughput drug screen in 47 multiple myeloma cell lines against the NCATS MIPE library collection: L363_DSMZ cell viability assay (AID 1918984); settings: L363 myeloma viability, CellTiter-Glo ATP luminescence, 48 h; viability (% of control): at 45.8 µM (top of the series); also: nearly all actives have a fitted effect of over 40% in size
# Method in brief: as §1
# [7] = Quantitative High-Throughput drug screen in 47 multiple myeloma cell lines against the NCATS MIPE library collection: KMS34_JCRB cell viability assay (AID 1918985); settings: KMS34 myeloma viability, CellTiter-Glo ATP luminescence, 48 h; viability, percent of control: at 45.8 µM (top of the series); also: nearly all actives have a fitted effect of over 40% in size
# Method in brief: as §1
# [8] = Quantitative High-Throughput drug screen in 47 multiple myeloma cell lines against the NCATS MIPE library collection: OCIMY7_PLB cell viability assay (AID 1918987); settings: OCI-MY7 myeloma viability, CellTiter-Glo ATP, 48 h; viability (% of DMSO): at 45.8 µM (top of the series); also: nearly all actives have a fitted effect of over 65% in size
# Method in brief: as §1
# [9] = Quantitative High-Throughput drug screen in 47 multiple myeloma cell lines against the NCATS MIPE library collection: SKMM1_PLB cell viability assay (AID 1919863); settings: SKMM1 myeloma viability, CellTiter-Glo ATP, 48 h; viability: active compounds read low; also: nearly all actives have a fitted effect of over 35% in size
# Method in brief: as §1
# [10] = Quantitative High-Throughput drug screen in 47 multiple myeloma cell lines against the NCATS MIPE library collection: U266_ATCC cell viability assay (AID 1919864); settings: U266 myeloma viability, CellTiter-Glo ATP luminescence, 48 h; viability (% of DMSO control): at 45.8 µM (top of the series); also: nearly all actives have a fitted effect of over 35% in size
# Method in brief: as §1
# [11] = Quantitative High-Throughput drug screen in 47 multiple myeloma cell lines against the NCATS MIPE library collection: XG6_PLB cell viability assay (AID 1919865); settings: XG6 myeloma viability, CellTiter-Glo ATP luminescence, 48 h; viability (% of control): at 45.8 µM (top of the series); also: nearly all actives have a fitted effect of over 40% in size
# Method in brief: as §1
# [12] = Quantitative High-Throughput drug screen in 47 multiple myeloma cell lines against the NCATS MIPE library collection: XG1_PLB cell viability assay (AID 1919866); settings: CellTiter-Glo ATP, 48 h; viability: at 45.8 µM (top of the series); also: nearly all actives have a fitted effect of over 35% in size
# Method in brief: as §1
# [13] = Quantitative High-Throughput drug screen in 47 multiple myeloma cell lines against the NCATS MIPE library collection: OCIMY1_PLB cell viability assay (AID 1918979); settings: OCI-MY1 myeloma viability, CellTiter-Glo ATP, 48 h; viability: at 45.8 µM (top of the series) unless noted; also: nearly all actives have a fitted effect of over 35% in size
# Method in brief: as §1
# [14] = Quantitative High-Throughput drug screen in 47 multiple myeloma cell lines against the NCATS MIPE library collection: KMS28PE_JCRB cell viability assay (AID 1918983); also: nearly all actives have a fitted effect of over 35% in size
# Method in brief: as §1
# [15] = Quantitative High-Throughput drug screen in 47 multiple myeloma cell lines against the NCATS MIPE library collection: OCIMY5_PLB cell viability assay (AID 1918988); settings: OCI-MY5 myeloma viability, ATP luminescence, 48 h; viability, % of control: at 45.8 µM (top of the series); also: nearly all actives have a fitted effect of over 65% in size
# Method in brief: as §1
# [16] = Quantitative High-Throughput drug screen in 47 multiple myeloma cell lines against the NCATS MIPE library collection: OPM1_PLB cell viability assay (AID 1918989); also: nearly all actives have a fitted effect of over 40% in size
# Method in brief: as §1
# [17] = Quantitative High-Throughput drug screen in 47 multiple myeloma cell lines against the NCATS MIPE library collection: MMM1_PLB cell viability assay (AID 1918976); also: nearly all actives have a fitted effect of over 35% in size
# Method in brief: as §1
# [18] = Quantitative High-Throughput drug screen in 47 multiple myeloma cell lines against the NCATS MIPE library collection: LP1_DSMZ cell viability assay (AID 1918982); settings: LP1 myeloma viability, CellTiter-Glo ATP luminescence, 48 h; viability (% of control): at 45.8 µM (top of the series); also: nearly all actives have a fitted effect of over 35% in size
# Method in brief: as §1
# [19] = Quantitative High-Throughput drug screen in 47 multiple myeloma cell lines against the NCATS MIPE library collection: MM1R_ATCC cell viability assay (AID 1918981); also: nearly all actives have a fitted effect of over 35% in size
# Method in brief: as §1
# Potency is read from the fitted curve at half-maximal effect.
Compound,Potency [1],Potency [2],Potency [3],Potency [4],Potency [5],Potency [6],Potency [7],Potency [8],Potency [9],Potency [10],Potency [11],Potency [12],Potency [13],Potency [14],Potency [15],Potency [16],Potency [17],viability [9],Potency [18],Potency [19]
CCCCCCCc1ccc(CCc2cccc(O)c2C(=O)O)cc1,"inconclusive: 0.0833 µM [cytotoxic, full curve, poor fit]",inconclusive: 0.001 µM [cytotoxic],"inconclusive: 16.6 µM [cytotoxic, partial curve, poor fit]","inconclusive: 8.33 µM [cytotoxic, partial curve, poor fit]","inconclusive: 18.7 µM [cytotoxic, partial curve, poor fit]",inactive,inactive,"inconclusive: 11.8 µM [rising, single point]","inconclusive: 33.2 µM [cytotoxic, partial curve, poor fit]",inactive,"inconclusive: 18.7 µM [cytotoxic, partial curve, poor fit]","inconclusive: 20.9 µM [cytotoxic, partial curve, poor fit]",,,,,,,,
COc1nc(C)nc(Cl)c1NC1=NCCN1,active: 9.35 µM,inactive,"inconclusive: 5.9 µM [rising, full curve, poor fit]",,active: 26.4 µM,inactive,"inconclusive: 0.833 µM [rising, partial curve, poor fit]",,"inconclusive: 0.0264 µM [rising, full curve, poor fit]",,"inconclusive: 4.18 µM [cytotoxic, full curve]","inconclusive: 4.18 µM [cytotoxic, full curve]","inconclusive: 0.0023 µM [rising, full curve, poor fit]",inactive,"inconclusive: 16.6 µM [cytotoxic, partial curve, poor fit]",inactive,,,,
COc1cc(C=CC(=O)O)ccc1O,"inconclusive: 0.0118 µM [rising, full curve, poor fit]",inconclusive: 0.001 µM,,,"inconclusive: 23.5 µM [cytotoxic, single point]","inconclusive: 0.662 µM [rising, partial curve, poor fit]",inactive,"inconclusive: 2.35 µM [cytotoxic, full curve, poor fit]",,"inconclusive: 0.0105 µM [rising, full curve, poor fit]",,"inconclusive: 18.7 µM [cytotoxic, partial curve, poor fit]","inconclusive: 0.0042 µM [rising, full curve, poor fit]",,,"inconclusive: 37.2 µM [cytotoxic, partial curve, poor fit]","inconclusive: 0.0074 µM [rising, full curve]",inactive: 124%,,
O=C(O)CCNC(=O)c1ccc(N=Nc2ccc(O)c(C(=O)O)c2)cc1,"inconclusive: 0.0418 µM [cytotoxic, full curve, poor fit]","inconclusive: 11.8 µM [cytotoxic, single point]","inconclusive: 0.0013 µM [cytotoxic, full curve, poor fit]",,,"inconclusive: 0.132 µM [cytotoxic, full curve, poor fit]",inactive,"inconclusive: 8.33 µM [cytotoxic, partial curve, poor fit]","inconclusive: 0.0296 µM [cytotoxic, full curve, poor fit]",,,inactive,,inactive,"inconclusive: 0.743 µM [cytotoxic, partial curve, poor fit]",,,,,
COc1ccc(-c2ccc3c(N4CCOC[C@H]4C)nc(N4CCOC[C@H]4C)nc3n2)cc1CO,active: 0.0093 µM,active: 4.69 µM,"inconclusive: 0.0526 µM [cytotoxic, full curve]","inconclusive: 0.0118 µM [cytotoxic, full curve]",,"inconclusive: 0.0264 µM [cytotoxic, full curve]",,,active: 0.0148 µM,,,"inconclusive: 0.0093 µM [cytotoxic, full curve]",,,active: 0.332 µM,active: 0.0148 µM,,,"inconclusive: 0.0074 µM [cytotoxic, full curve]",
COc1ccc(-c2ccc3ncc4c(c3c2)n(-c2ccc(N3CCNCC3)c(C(F)(F)F)c2)c(=O)n4C)cn1,active: 0.0066 µM,,"inconclusive: 0.0047 µM [cytotoxic, full curve]","inconclusive: 0.0042 µM [cytotoxic, full curve]","inconclusive: 0.0066 µM [cytotoxic, full curve]","inconclusive: 0.0132 µM [cytotoxic, partial curve, poor fit]","inconclusive: 0.0033 µM [cytotoxic, full curve]",active: 0.0059 µM,active: 0.526 µM,,"inconclusive: 0.0047 µM [cytotoxic, full curve]","inconclusive: 0.0023 µM [cytotoxic, full curve]","inconclusive: 0.0469 µM [cytotoxic, full curve]",,active: 0.0469 µM,inactive,active: 0.0074 µM,,"inconclusive: 0.0332 µM [cytotoxic, full curve]",
Cc1c(C(=O)NN2CCCCC2)nn(-c2ccc(Cl)cc2Cl)c1-c1ccc(Cl)cc1,"inconclusive: 20.9 µM [cytotoxic, partial curve, poor fit]","inconclusive: 33.2 µM [cytotoxic, single point]","inconclusive: 37.2 µM [cytotoxic, single point]","inconclusive: 20.9 µM [cytotoxic, partial curve]","inconclusive: 33.2 µM [cytotoxic, single point]","inconclusive: 41.8 µM [cytotoxic, partial curve, poor fit]",,active: 16.6 µM,"inconclusive: 33.2 µM [cytotoxic, single point]","inconclusive: 33.2 µM [cytotoxic, single point]",active: 26.4 µM,,"inconclusive: 37.2 µM [cytotoxic, single point]","inconclusive: 26.4 µM [cytotoxic, single point]","inconclusive: 20.9 µM [cytotoxic, partial curve, poor fit]","inconclusive: 37.2 µM [cytotoxic, single point]",,,"inconclusive: 20.9 µM [cytotoxic, partial curve]","inconclusive: 33.2 µM [cytotoxic, single point]"
Nc1nc(=O)n([C@H]2CSC(CO)O2)cc1F (stereo partly specified),inactive,,"inconclusive: 1.18 µM [cytotoxic, single point]",inactive,"inconclusive: 0.0148 µM [rising, full curve, poor fit]",inactive,"inconclusive: 8.33 µM [rising, partial curve]","inconclusive: 14.8 µM [cytotoxic, partial curve, poor fit]",,"inconclusive: 1.32 µM [rising, partial curve, poor fit]",inactive,,,,"inconclusive: 0.264 µM [cytotoxic, full curve, poor fit]",,"inconclusive: 0.0074 µM [rising, full curve]",inactive: 114%,inactive,inactive
Cc1cc(C(C)(C)C)cc(C)c1CC1=NCCN1,inactive,inactive,inactive,,"inconclusive: 33.2 µM [cytotoxic, single point]","inconclusive: 1.66 µM [cytotoxic, full curve, poor fit]",,inactive,,inactive,"inconclusive: 23.5 µM [cytotoxic, single point]",inactive,"inconclusive: 23.5 µM [rising, single point]",,"inconclusive: 0.372 µM [rising, full curve, poor fit]",inactive,,inactive: 116%,"inconclusive: 18.7 µM [cytotoxic, partial curve, poor fit]",inactive
N[C@@H](C(=O)N[C@@H]1C(=O)N2C(C(=O)O)=C(Cl)CS[C@H]12)c1ccccc1,inactive,,inactive,,inactive,"inconclusive: 0.0118 µM [cytotoxic, full curve, poor fit]",inactive,"inconclusive: 0.0042 µM [rising, full curve, poor fit]",,"inconclusive: 0.0037 µM [rising, full curve]",,"inconclusive: 37.2 µM [cytotoxic, single point]","inconclusive: 0.0418 µM [rising, full curve, poor fit]",inactive,"inconclusive: 0.0019 µM [cytotoxic, full curve, poor fit]",inactive,"inconclusive: 0.0037 µM [rising, full curve, poor fit]",inactive: 123%,,"inconclusive: 0.0132 µM [rising, full curve, poor fit]"
COC(=O)[C@H](c1ccccc1Cl)N1CCc2sccc2C1,"inconclusive: 0.0042 µM [cytotoxic, full curve, poor fit]",,,"inconclusive: 23.5 µM [cytotoxic, partial curve, poor fit]","inconclusive: 37.2 µM [cytotoxic, single point]","inconclusive: 13.2 µM [cytotoxic, partial curve, poor fit]",inconclusive: 0.001 µM [cytotoxic],,"inconclusive: 0.132 µM [rising, full curve, poor fit]","inconclusive: 33.2 µM [cytotoxic, single point]",inactive,inactive,,,"inconclusive: 4.18 µM [cytotoxic, partial curve, poor fit]","inconclusive: 37.2 µM [cytotoxic, single point]","inconclusive: 23.5 µM [cytotoxic, partial curve, poor fit]",,inactive,inactive
